Measurements reported in patent US12238268B2, “Imaging systems and methods” (priority 2012, dated 2025).
Not every detail of the peptide structures is certain; ends, links or a residue may be inferred. Positions of bridges follow the written chain, without caps; N, C: chain ends. Non-standard residues stand in square brackets, D forms with d. Residues, ends and D or L forms follow the SMILES beside them. *: point of attachment. X1 = CC1(C)C(/C=C/C=C/C=C/C=C2/N(CCC(=O)*)c3ccc4ccccc4c3C2(C)C)=[N+](CCC(=O)[O-])c2ccc3ccccc3c21

Assay: Spectral properties for NIR imaging
Assay type: physicochemical
Conditions: referenced to ICG

CC1(C)C(/C=C/C=C/C=C/C=C2/N(CCC(=O)N[C@@H]3CSSC[C@@H](C(=O)N[C@@H](CCCCN)C(=O)O)NC(=O)[C@@H]4CCCN4C(=O)[C@H](CO)NC(=O)[C@H](CC(=O)O)NC(=O)[C@H](CCCNC(=N)N)NC(=O)CNC3=O)c3ccc4ccccc4c3C2(C)C)=[N+](CCC(=O)[O-])c2ccc3ccccc3c21 [LS-301, Cypate-cyclo (D-Cys-Gly-Arg-Asp-Ser-Pro-Cys)-Lys-OH] (X1-[dC]GRDSPCK-OH; disulfide 1-7)
fluorescence quantum yield (ψ): 0.1
